Consider two substances from PMC6547688.

The chains behind the UniProt entries cited, without tags or fusion partners. Where a name states a change or a piece, a line headed by the entry shows the natural chain unless it says otherwise.
UniProt Q5W0B1: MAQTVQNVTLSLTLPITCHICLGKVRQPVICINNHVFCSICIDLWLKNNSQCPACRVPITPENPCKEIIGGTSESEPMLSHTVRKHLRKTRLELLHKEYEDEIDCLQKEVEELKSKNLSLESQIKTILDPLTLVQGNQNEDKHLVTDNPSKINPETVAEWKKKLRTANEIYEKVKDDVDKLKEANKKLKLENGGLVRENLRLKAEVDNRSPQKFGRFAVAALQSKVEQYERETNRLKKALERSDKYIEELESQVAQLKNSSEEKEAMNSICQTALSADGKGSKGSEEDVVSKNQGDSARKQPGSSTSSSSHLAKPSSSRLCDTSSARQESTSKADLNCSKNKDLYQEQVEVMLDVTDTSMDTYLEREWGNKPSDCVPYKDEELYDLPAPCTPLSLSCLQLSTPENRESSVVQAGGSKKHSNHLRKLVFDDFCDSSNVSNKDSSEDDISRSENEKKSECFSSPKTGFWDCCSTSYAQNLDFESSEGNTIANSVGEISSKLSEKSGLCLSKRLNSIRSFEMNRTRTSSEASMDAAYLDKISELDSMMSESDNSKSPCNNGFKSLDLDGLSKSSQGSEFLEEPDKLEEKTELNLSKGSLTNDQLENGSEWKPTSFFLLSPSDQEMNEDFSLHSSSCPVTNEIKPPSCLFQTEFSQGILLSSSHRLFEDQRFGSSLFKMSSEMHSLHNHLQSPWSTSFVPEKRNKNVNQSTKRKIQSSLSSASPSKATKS

No constants are given. Whether binding was seen depends on the method and setting. In cells and extracts the contact can be indirect. Tags and fused reporters may be left off the sequences shown.

This experiment concerns the target T1, Flag-ORC1, ectopic (human) (UniProt Q13415).
T1 sequence: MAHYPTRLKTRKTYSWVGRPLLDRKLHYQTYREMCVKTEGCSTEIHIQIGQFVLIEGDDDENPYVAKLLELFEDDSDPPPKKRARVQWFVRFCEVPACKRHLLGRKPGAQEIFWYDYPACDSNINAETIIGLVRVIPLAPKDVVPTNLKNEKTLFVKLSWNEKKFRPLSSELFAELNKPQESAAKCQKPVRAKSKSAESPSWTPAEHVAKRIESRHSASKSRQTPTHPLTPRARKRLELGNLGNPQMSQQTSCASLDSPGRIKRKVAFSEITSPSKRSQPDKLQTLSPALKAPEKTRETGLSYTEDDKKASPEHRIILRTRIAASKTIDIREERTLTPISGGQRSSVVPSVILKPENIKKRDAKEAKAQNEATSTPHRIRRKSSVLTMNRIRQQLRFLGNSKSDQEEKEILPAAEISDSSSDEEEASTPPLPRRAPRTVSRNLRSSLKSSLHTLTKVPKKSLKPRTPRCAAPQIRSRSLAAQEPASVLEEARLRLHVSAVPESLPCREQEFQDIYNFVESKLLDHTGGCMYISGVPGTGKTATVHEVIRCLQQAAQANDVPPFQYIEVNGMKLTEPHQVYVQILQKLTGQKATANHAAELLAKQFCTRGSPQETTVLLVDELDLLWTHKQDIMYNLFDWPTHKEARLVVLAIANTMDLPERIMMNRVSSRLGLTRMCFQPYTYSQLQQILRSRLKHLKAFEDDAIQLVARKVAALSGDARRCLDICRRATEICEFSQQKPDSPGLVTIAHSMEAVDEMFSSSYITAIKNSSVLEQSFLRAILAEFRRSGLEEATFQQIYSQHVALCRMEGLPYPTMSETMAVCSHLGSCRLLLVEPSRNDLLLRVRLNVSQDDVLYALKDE
Description: co-IP; transfected cells lysed in TK300 buffer (20 mM Tris-HCl pH 7.9, 300 mM KCl, 5 mM MgCl2, 10% glycerol, 0.5% NP-40); anti-Flag agarose beads, 4 h at 4 °C; western blotting.

In the case of “OBI1 deletion mutant lacking the coiled-coil domain (from UniProt Q5W0B1) (enzyme)”, the binding result is “no binding”. Turning to “OBI1 deletion mutant lacking the C-terminal extension (human) (domain or fragment)”, the binding entry is reported as “no binding”.
